Laboratory results taken from article PMC7034062.
Read-outs that look alike come from different tables or passages of the source. These are yes or no findings as the source states them, for the method shown. In cells and extracts the contact can be indirect. Some results given as binding are weak or reduced against the parent protein; the word gives no strength.

Chains of the proteins cited; added tags and fusions are not shown.
UniProt P24279: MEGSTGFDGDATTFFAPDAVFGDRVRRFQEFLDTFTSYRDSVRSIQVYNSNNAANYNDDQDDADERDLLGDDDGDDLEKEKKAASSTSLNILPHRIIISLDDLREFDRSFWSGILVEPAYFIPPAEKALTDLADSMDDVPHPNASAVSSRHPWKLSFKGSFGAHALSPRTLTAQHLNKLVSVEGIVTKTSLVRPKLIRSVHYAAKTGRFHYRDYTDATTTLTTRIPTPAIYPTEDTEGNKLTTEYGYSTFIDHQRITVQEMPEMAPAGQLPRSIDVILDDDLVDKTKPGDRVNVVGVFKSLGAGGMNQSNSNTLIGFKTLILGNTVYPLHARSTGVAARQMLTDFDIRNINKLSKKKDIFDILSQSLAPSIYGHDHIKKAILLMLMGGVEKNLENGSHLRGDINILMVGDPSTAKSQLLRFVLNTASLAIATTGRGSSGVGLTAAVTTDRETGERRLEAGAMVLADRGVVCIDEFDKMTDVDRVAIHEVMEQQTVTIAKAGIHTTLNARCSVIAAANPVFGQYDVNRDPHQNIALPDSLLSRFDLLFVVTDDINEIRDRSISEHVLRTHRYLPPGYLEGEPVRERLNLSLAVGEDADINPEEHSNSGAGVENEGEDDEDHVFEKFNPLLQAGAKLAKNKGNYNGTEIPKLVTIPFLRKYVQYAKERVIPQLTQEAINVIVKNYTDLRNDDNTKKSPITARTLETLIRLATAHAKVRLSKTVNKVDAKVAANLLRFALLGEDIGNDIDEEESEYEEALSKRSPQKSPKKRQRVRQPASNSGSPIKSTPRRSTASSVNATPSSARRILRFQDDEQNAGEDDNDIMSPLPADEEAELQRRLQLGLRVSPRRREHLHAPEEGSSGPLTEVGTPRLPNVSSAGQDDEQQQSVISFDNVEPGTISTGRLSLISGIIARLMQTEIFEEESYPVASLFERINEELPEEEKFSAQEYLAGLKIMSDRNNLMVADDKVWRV
UniProt P04050: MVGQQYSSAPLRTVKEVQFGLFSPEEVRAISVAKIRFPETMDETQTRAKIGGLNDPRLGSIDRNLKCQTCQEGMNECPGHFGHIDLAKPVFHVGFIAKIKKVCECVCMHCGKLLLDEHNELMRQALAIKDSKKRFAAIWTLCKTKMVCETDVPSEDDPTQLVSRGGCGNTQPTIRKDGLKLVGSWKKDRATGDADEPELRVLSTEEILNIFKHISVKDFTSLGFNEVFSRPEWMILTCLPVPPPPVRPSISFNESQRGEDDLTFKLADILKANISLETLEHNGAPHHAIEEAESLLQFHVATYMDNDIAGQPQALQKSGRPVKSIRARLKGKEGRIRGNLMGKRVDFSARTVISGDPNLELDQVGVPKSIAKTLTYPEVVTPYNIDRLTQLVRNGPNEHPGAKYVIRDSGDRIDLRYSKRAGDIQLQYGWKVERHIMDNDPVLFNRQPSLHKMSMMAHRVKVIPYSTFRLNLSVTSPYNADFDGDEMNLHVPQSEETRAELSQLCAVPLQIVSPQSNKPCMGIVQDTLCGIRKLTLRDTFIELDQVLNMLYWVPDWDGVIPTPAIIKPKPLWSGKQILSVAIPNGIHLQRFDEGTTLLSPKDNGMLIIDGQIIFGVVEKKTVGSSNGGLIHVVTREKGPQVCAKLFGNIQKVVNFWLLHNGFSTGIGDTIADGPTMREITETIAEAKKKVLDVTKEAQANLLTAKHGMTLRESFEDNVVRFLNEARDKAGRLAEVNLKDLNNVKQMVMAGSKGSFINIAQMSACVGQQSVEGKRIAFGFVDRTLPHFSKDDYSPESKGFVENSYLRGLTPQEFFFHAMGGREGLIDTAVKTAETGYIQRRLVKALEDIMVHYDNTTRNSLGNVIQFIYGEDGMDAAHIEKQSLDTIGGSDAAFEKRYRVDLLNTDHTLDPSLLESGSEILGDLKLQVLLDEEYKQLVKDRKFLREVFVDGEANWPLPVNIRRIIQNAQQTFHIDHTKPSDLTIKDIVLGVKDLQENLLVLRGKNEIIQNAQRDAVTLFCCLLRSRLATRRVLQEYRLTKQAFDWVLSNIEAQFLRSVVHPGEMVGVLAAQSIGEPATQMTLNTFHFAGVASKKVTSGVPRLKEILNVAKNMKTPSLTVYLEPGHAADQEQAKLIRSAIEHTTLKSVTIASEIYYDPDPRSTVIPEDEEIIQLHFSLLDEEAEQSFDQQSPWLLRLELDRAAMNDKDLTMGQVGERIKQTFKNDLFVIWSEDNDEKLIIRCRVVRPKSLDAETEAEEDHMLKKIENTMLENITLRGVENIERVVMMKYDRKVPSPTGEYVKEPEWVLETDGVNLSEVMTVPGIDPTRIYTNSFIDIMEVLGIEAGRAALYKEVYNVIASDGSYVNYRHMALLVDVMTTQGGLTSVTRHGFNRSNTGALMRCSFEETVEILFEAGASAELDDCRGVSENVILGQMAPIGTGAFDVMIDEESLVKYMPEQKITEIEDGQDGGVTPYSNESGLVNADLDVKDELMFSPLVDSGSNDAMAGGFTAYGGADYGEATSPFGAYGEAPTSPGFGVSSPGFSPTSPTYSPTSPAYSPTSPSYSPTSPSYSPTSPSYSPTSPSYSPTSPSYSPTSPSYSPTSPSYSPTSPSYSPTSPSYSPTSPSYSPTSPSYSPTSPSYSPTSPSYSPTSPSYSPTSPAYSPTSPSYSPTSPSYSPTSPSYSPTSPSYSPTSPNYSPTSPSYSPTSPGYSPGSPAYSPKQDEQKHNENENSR

T1: TAP-Sen1 (2-931) (S. cerevisiae) (UniProt Q00416)
T1 sequence: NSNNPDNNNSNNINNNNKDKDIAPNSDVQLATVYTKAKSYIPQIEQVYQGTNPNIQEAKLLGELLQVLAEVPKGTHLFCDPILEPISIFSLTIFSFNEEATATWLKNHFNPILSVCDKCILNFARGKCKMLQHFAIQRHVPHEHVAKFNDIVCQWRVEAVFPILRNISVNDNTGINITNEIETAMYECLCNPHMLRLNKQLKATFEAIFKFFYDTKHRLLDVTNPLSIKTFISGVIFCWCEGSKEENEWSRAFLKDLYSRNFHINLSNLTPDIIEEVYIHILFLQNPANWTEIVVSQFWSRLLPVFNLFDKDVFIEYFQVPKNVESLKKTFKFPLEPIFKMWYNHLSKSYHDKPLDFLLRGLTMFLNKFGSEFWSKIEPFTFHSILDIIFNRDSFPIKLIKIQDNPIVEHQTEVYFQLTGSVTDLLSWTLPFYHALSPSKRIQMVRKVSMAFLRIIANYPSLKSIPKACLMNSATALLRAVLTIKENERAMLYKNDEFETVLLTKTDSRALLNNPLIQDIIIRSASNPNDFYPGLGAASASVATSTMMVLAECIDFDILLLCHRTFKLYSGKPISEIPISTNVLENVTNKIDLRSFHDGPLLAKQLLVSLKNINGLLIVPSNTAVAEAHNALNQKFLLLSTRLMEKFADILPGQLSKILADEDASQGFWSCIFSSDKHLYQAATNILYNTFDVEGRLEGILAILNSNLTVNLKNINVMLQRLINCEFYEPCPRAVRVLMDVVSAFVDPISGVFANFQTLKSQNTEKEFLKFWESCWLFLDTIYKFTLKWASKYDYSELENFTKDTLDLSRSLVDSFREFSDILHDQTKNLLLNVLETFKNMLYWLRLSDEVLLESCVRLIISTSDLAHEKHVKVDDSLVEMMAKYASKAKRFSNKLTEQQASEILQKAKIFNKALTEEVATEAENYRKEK

B1: Mrc1 (protein, UniProt P25588 1-1096)
chain: MDDALHALSSLTAKKRTTTYKKVAVPILDENDNTNGNGPNDIDNPPELTGNGFLFANATLNRVKNRLEGKKAPEQNHNNGKDRSENSLPTQLISNLYDGGEELEKSEVKDNSYSEKNVSSSFTQTQRIPVSIQQDKVFNVPIHSVNDGKPTQLIKEDGLVNETSQALKTPLTTGRPGATQRIDSSGATSQTQPIKSIEPQSQIITTSSNHSNALSPKIPIIPTELIGTSPLFQSIQNRGPDTQMDVPPQTAHDEDKTQAIGIPQATHQEQKTQIDTVAQTLQDEVPHTLKIREIQSELASEDSKREKARNVEYKKPQKPIPTKKFFSKESFLADFDDSSSNEDDDIKLENAHPKPVQNDDELHENKSVELNLTDETRINEKRVPLLSSYANNLKREIDSSKCITLDLDSDSDEYGDDDMDSIKLSKDESVLPISQLSKATILNLKARLSKQNQKLSQRPNKSKDPKVDHNVLLNTLRKASRKQILDHQKEVIETKGLKLEDMAKEKEIVENLLEQEILRNKRIRQKEKRREKLEENDFQLNAHDSGSDSGSESSGFALSGNEIADYESSGSENDNRRESDSEKEDDEIILKQKKSHHVKHIINESDSDTEVEAKPKEKADESLPKRIAINLGHYGDNIGEDTDKFQETNVLDTQNIEEVMAERNTIENEVKDDVYVNEEADEAIRRQLIDKEKLQLKQKEKEHEAKIKELKKRGVTNFFEMEAEESEDEWHGIGGADGEGSDDYDSDLEKMIDDYSKNNFNPHEIREMLAAENKEMDIKMINKILYDIKNGGFRNKRAKNSLELELSDDDEDDVLQQYRLKRRELMRKRRLEIGDDAKLVKNPKSSAFFESMVEDIIEYKNPFGAEEEYNLDITSTATDLDTQDNSINVGDNTGNNEQKPVDQKNKKVIISEDFVQKSLSFLKSNNYEDFETDKELSRIQHGNDEAIEDLYTLKQNSSIKSFTNSQTDSTTSKTVNTIIDLEKRPEDEDEVENGDTSLVGVFKHPSIIKSFASRTDINDKFKEGNKTVKILKSYKTVGSSKASITYMGKTRKLIAPKRKTEGSHRYHHDHHNKKMKMKTKTKSNKLFESGQDSFDN
B2: Ctf4 (protein, UniProt Q01454 1-927)
chain: MVSVIDKLVFDFGGKTLVSLAPDNNTLCVANKNGLTKILKTNNPEEEPETLDSSKLVSSIKCYSNSHFLMTTMQGDALRYNIDSSQEELLARFALPLRDCCVIHSGKMAVFGGDDLELILLELDDETHKKHAIKIDEQVSQISYNSQMNILAVSMINGKVQIFSLTSTIPNKVHELNDYIVANSYDDTHRDKILSNMMDDIDKDNDNDLSETADPDENNVADPEFCAANRICTRVAWHPKGLHFALPCADDTVKIFSIKGYSLQKTLSTNLSSTKAHFIDLQFDPLRGTYIAAVDLNNKLTVWNWETSEIHYTREFKRKITNIAWKIQADSKTLDLVLGTWSGSIAIVQNLAESVVSNIPDQSVAESSTKHGLFVDSESDLENLEGNDDINKSDKLFSDITQEANAEDVFTQTHDGPSGLSEKRKYNFEDEEDFIDDDDGAGYISGKKPHNEHSYSRVHKTHSFPISLANTGKFRYMPFSPAGTPFGFTDRRYLTMNEVGYVSTVKNSEQYSITVSFFDVGRFREYHFEDLFGYDLCFLNEKGTLFGQSKTGQIQYRPHDSIHSNWTKIIPLQAGERITSVAATPVRVIVGTSLGYFRSFNQFGVPFAVEKTSPIVALTAQNYRVFSVHYSQFHGLSYSLSELGTSSKRYYKRECPLPMSLPNINSDMKKDANLDYYNFNPMGIKSLFFSSYGDPCIFGSDNTLLLLSKWRSPEESKWLPILDSNMEIWKMSGGKETTDIHVWPLALAYDTLNCILVKGKHIWPEFPLPLPSEMEIRMPVFVKSKLLEENKAILNKKNEIGADTEAEEGEEDKEIQIPVSMAAEEEYLRSKVLSELLTDTLENDGEMYGNENEVLAALNGAYDKALLRLFASACSDQNVEKALSLAHELKQDRALTAAVKISERAELPSLVKKINNIREARYEQQLK

Columns and labels:
[1] = target: TAP-Mcm3 (S. cerevisiae) (UniProt P24279); assay: co-IP; TAP-tagged bait captured for 2 h on TAP-beads (Dynabeads) from nuclease-treated, clarified extracts of synchronised yeast cells (S phase unless told otherwise; also G1, psf1-1, td-sld3-7, rpb1-1 and single deletion backgrounds); washes in 100 mM HEPES-KOH pH 7.9, 50 mM potassium acetate, 50 mM magnesium acetate, 2 mM EDTA, 0.1% Igepal CA-630; immunoblotting
[2] = target: Sen1-3-TAP (S. cerevisiae) (UniProt Q00416); assay: as above
[3] = target: Sen1-TAP (S. cerevisiae) (UniProt Q00416); assay: as above
[4] = target: T1, TAP-Sen1 (2-931) (S. cerevisiae); assay: co-IP; as a1, in cells without Ctf4 (ctf4Δ; also td-sld3-7 ctf4Δ); G1 arrest or S phase
[5] = target: Sen1-3-TAP (S. cerevisiae) (UniProt Q00416); assay: co-IP; TAP-tagged bait captured for 2 h on TAP-beads (Dynabeads) from nuclease-treated, clarified extracts of synchronised yeast cells (S phase unless told otherwise; also G1, psf1-1, td-sld3-7, rpb1-1 and single deletion backgrounds); washes in 100 mM HEPES-KOH pH 7.9, 50 mM potassium acetate, 50 mM magnesium acetate, 2 mM EDTA, 0.1% Igepal CA-630; immunoblotting; remark: listed apart in the source
[6] = target: Sen1-TAP (S. cerevisiae) (UniProt Q00416); assay: as above; remark: listed apart in the source
[7] = target: T1, TAP-Sen1 (2-931) (S. cerevisiae); assay: as above

| Molecule | binding [1] | binding [2] | binding [3] | binding [4] | binding [5] | binding [6] | binding [7] |
| --- | --- | --- | --- | --- | --- | --- | --- |
| 3HA-Sen1 (2-2231) W773A E774A W777A (from UniProt Q00416 2-2231) | no binding |  |  |  |  |  |  |
| RNAPII (Rpo21) (from UniProt P04050 1-1733) |  | binds | binds |  |  |  |  |
| B1 |  |  |  | binds | no binding | binds | binds weakly |
| B2 |  |  |  |  | no binding | binds | binds |
